Tags and fusion partners may be left off the protein sequences shown. For some assays here: The exact form of at least one protein or probe is not confirmed.
Tests used:
[1] = tested on: T1, AraQ (Bifidobacterium breve UCC2003); assay: EMSA; conditions: 150 nM protein; EMSA: binding buffer stock 80 mM Tris-HCl pH 8.0, 20 mM MgCl2, 2 mM DTT, 4 mM EDTA, 400 mM KCl, 40% glycerol (final dilution not stated); poly(dI-dC) 0.05 ug/ul; recombinant protein; protein details: C-terminal His10; label: 5' IRD700; probe letters rebuilt from the primers and the genome
T1 sequence (looked up, limits assumed): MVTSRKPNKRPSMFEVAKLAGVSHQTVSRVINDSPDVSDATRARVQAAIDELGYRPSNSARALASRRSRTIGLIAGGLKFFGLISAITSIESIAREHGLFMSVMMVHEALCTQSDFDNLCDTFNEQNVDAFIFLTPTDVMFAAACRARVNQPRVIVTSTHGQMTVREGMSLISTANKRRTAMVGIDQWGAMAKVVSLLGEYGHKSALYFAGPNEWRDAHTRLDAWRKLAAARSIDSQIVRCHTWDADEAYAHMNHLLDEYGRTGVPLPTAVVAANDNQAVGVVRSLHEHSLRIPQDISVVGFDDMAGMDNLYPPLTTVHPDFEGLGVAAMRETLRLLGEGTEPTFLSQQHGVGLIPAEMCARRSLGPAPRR

[2] = tested on: T2, MalR1 (Bifidobacterium breve UCC2003); assay: EMSA; conditions: 150 nM protein; EMSA: binding buffer stock 80 mM Tris-HCl pH 8.0, 20 mM MgCl2, 2 mM DTT, 4 mM EDTA, 400 mM KCl, 40% glycerol (final dilution not stated); poly(dI-dC) 0.05 ug/ul; recombinant protein; residues 1-338; protein details: C-terminal His10; label: 5' IRD700; probe letters rebuilt from the primers and the genome; counted as no binding
T2 sequence (looked up): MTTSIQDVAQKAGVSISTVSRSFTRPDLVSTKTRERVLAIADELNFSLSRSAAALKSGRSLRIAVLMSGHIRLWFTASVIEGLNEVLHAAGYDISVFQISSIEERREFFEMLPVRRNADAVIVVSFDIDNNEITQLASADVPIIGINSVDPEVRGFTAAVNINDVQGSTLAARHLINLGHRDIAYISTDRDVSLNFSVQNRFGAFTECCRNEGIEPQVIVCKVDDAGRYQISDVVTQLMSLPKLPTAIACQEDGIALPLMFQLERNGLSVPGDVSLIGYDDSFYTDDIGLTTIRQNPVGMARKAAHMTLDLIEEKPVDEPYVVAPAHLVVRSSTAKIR

## TGGACATCCGGTCAGGCCTTTTGCCGTCATATGGGAGCGTCAGCGTTCATTCTCCGTTTCGAGGGGCTGATTTTGCTTCTTGGGAAGTTCTATCTCCGTTTCGAGGGGCTGGTGCCCAAGTAGAAGAGGTCCAAGAATGGCGAAATGACGGTGGCAAGAAGGCGTTTGTACTTGTGTTTCGGCGGATGACCAGCCCCTTGAAACGGAGATAGACCTCCGGAAAGGTTCAAATCAGCCCCTCGAAACTTAAATATGACGATCAAAGCGCAAATGTGAACAATGCCACATATAACTTGGTGAGTCGCTGCACGATGATTTTCGGGGCTTCTCAAGAATGGCGGAATATCAACAGAAACCCCTATATCTAGGTTTGTTGTGTGATACACGCCACTACATATAGTGCATTGATTTCAAACTACACAGATGTAATATGGCCATCGTTTCACTGTTCAACAGAGATAGATGGAGGGGAGTCGCCATGACCGTCACCGTGTTCACCAAGCCGCATTGCCCGCAATGCAACGCCACCAAGCGCCAGCTCACCAAGCTTGGTGTGCCGTTCGAGAC (double strand) [nrdH promoter]
[1]
  binding result: binds
[2]
  binding signal: 0 % bound

Reference: article PMC6882875
